The target of the assay is T1, GFP2 fusion of human protein kinase X (PrKX) (BRET acceptor) (human) (UniProt P51817).
T1 sequence: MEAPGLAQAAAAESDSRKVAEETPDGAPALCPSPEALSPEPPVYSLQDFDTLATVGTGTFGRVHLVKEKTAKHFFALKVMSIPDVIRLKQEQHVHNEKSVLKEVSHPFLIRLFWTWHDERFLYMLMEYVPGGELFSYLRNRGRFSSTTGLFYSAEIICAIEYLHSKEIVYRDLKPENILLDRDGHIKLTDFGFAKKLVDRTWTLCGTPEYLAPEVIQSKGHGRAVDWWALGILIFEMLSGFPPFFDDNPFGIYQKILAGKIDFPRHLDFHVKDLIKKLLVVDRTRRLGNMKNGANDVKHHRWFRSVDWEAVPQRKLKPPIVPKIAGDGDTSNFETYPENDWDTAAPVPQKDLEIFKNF
In words: FRET or BRET; BRET2 in living HEK293 cells; RLuc8 fused to the R subunit, GFP2 fused to the C subunit; 37 °C, HBSS w/o Mg2+/Ca2+ pH 7.4, coelenterazine 400a; time courses and end points (20 min); cells treated with buffer, 100 nM isoproterenol, or 50 uM forskolin + 100 uM IBMX. A general note: In BRET a luciferase serves as donor, and the signal depends on an acceptor being close.

Sequences of proteins named here, by UniProt entry; tags and fusion partners are left off.
UniProt P31321: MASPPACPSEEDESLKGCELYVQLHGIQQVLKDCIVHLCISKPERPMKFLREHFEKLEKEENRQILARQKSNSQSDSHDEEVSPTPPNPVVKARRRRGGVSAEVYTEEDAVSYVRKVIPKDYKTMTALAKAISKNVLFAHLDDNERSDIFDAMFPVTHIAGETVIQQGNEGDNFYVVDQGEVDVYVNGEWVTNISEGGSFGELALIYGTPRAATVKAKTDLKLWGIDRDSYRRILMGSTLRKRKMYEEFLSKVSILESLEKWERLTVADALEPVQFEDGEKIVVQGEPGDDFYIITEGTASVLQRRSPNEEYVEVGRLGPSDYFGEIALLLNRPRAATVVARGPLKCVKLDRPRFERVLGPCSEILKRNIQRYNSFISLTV

Results are given in words; binding and its absence hold for the method and conditions named. In cells and extracts the contact can be indirect. Some entries that bind do so weakly or less than the wild type. Tags and fused reporters may be left off the sequences shown.

The values that follow come from publication PMC13080237, “Functional divergence of protein kinase A regulatory subunit Iβ variants: the importance of N3A motifs in PKA regulation” (The Febs Journal, 2025).

In the case of “RLuc8 fusion of human RIβ A268 (BRET donor) (from UniProt P31321 1-381)”, the binding result was “binds”.
